Test results taken from publication PMC9237525, “Solution Structure of Tubuliform Spidroin N-Terminal Domain and Implications for pH Dependent Dimerization” (Frontiers in Molecular Biosciences, 2022).
Results are given in words; binding and its absence hold for the method and conditions named.

Target: Argiope argentata tubuliform spidroin (TuSp 1) N-terminal domain, wild type (Argiope argentata)
Experiment: condition: only at pH 8 with 300 mM NaCl (3 mg/ml loaded); SEC; Superdex 75 Increase 10/300 GL, 50 µl at 3 mg/ml, 20 mM Tris-HCl, 300 mM NaCl, pH 8.0; both purified

B1: Argiope argentata tubuliform spidroin (TuSp 1) N-terminal domain, wild type (domain or fragment)
chain: AVTAVPSVFSSPNLASGFLQCLTFGIGNSPAFPTQEQQDLDAIAQVILNAVSTNTGATASARAQALSTALASSLTDLLIAESAESNYNNQLSELTGILSNCFIQTTGSDNPAFVSRIQSLISVLSQNTDVNIISTA
notes: Tubuliform spidroin 1 (TuSp 1) N-terminal domain, Argiope argentata; 136 residues (count printed for the A70E variant); Expressed from pET-32a-HisTrxHisNT; Intramolecular disulfide C22-C102; 15N- or 13C,15N-labelled for NMR; Calculated mass 14.1 kDa (monomer); also called TuSp NT; wt TuSp NT; not shown: His-Trx, N-terminal, cleaved
B1 was tested, and the binding was “no binding”.
